# Data reported in article PMC7819943, “Rice protein-binding microarrays: a tool to detect cis-acting elements near promoter regions in rice”.
# Protein sequences, listed by entry. Tags and fused reporters are not part of them.
# UniProt Q0JBA9, entry or part of it: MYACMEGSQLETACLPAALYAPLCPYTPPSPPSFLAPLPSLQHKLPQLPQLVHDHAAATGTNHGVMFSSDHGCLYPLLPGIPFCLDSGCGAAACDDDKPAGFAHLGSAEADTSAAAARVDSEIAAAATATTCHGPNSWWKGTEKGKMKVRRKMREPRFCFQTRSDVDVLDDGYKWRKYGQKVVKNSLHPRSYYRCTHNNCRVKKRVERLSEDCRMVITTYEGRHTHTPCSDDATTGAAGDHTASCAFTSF
# The list shows a part of the results.
# Biological target: OsWRKY34 (Oryza sativa, UniProt Q0JBA9 1-250)
# Experiment: protein-binding microarray (RPBM); PBS, 2% BSA, 51.3 ng/ul salmon testes DNA, 50 uM zinc acetate, 200 nM TF, 25 C, 1 h; high values mean tight binding
# Settings: protein: recombinant; tags: N-terminal polyhistidine and DsRed monomer fusion (pET32a); label: CyDye5-dUTP incorporated in the synthesized complementary strand; 3' TTTTT single-stranded linker to array surface; dsDNA, one strand shown
# Procedure, shortened: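 Polyhistidine-tagged DsRed fusions of transcription factors, joined at the N-terminus, were expressed in E. coli BL21-CodonPlus and isolated on Ni–NTA. They were incubated at 200 nM for 1 h at 25 °C on a custom Agilent array, double-stranded and BSA-blocked, in PBS with 2% BSA, salmon testes DNA and 50 µM zinc acetate. The binding signal is per-feature fluorescence intensity (arbitrary units) read on an Axon 4000B scanner after washing.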
row,Sequence,binding signal
1,CTCTCCGGCGAGCTTTTTCACTCACTCACTGTGTTTCTCTCGGAGTCACCTAGTGCAG,9060 fluorescence intensity (a.u.)
2,GACTTTTCCAATGGCATTTCTGTTTCCTGCTCCCTAGTCGCGGAGTCACCTAGTGCAG,9000 fluorescence intensity (a.u.)
3,GTGAGGCTTTTGGTTTTATGTTGTGATTTTGAGTGCCATTCGGAGTCACCTAGTGCAG,9370 fluorescence intensity (a.u.)
4,TCCACCTCCTAGCGAAATGCATGGTTGGCCAAACAACACACGGAGTCACCTAGTGCAG,8300 fluorescence intensity (a.u.)
5,CCTATGTTTTTCTTGCGGTCCAATCAAACGGCCATTCCTGCGGAGTCACCTAGTGCAG,9170 fluorescence intensity (a.u.)
6,TCTATCTACCCCGCATTCCATCCATCCGCGCATTAATCCCCGGAGTCACCTAGTGCAG,15100 fluorescence intensity (a.u.)
7,GTAATTTGTAGGCTCAAACTGGCTTCGTTATTCTTGTTTTCGGAGTCACCTAGTGCAG,10900 fluorescence intensity (a.u.)
8,TCTCGTCTTCTTCCTAATCCTTCCTGCATCGATTCTAACTCGGAGTCACCTAGTGCAG,9760 fluorescence intensity (a.u.)
9,CTACATTATATCGATCTGTACATTCTCTTGGTCATGCATACGGAGTCACCTAGTGCAG,9970 fluorescence intensity (a.u.)
10,TCACGGTTTCCATGCAAGTTATGAAATTAGTTTGTTCATTCGGAGTCACCTAGTGCAG,8192 fluorescence intensity (a.u.)
11,TGACATAGCCTTACGATCCCTTTTCTTCTCATCGTTGGACCGGAGTCACCTAGTGCAG,8280 fluorescence intensity (a.u.)
12,ACATGTTCATACTCATACATGTATATCCTCTTTGCCTAAACGGAGTCACCTAGTGCAG,11500 fluorescence intensity (a.u.)
13,GTTGTGCAACCTCTATTTTGTACATGTATTTCTGTTTAAACGGAGTCACCTAGTGCAG,8620 fluorescence intensity (a.u.)
14,CATCGGAGCGGGAGGTAAGGTAAAGGTGTTGACTATTGAACGGAGTCACCTAGTGCAG,8360 fluorescence intensity (a.u.)
15,CATAGCCACTCGCTGCGCCTCCTCCTCATCGCCTCGCCGTCGGAGTCACCTAGTGCAG,8490 fluorescence intensity (a.u.)
16,GCACGATCTCACGATTCTGCCTCCTCATCTCTGTCGTTTCCGGAGTCACCTAGTGCAG,8480 fluorescence intensity (a.u.)
17,GGTTATCTGCGTCGTCGTCTGTCATCTCCTCCTCATCTTCCGGAGTCACCTAGTGCAG,10200 fluorescence intensity (a.u.)
18,GATAGTTGAGGGGTCGAGATTTTTGGTATTGCGGATTGGGCGGAGTCACCTAGTGCAG,10400 fluorescence intensity (a.u.)
19,TTTTCTATATTTAATACTCCATATATATATATTTTCAAACCGGAGTCACCTAGTGCAG,8700 fluorescence intensity (a.u.)
20,TCTTCTACTCCACTTGGTATATATGGTTGTTGCTTTGACTCGGAGTCACCTAGTGCAG,14600 fluorescence intensity (a.u.)
21,GGTTGGTTGGTGGAGGTGGATGGGAAACCCAAGAAAATACCGGAGTCACCTAGTGCAG,11200 fluorescence intensity (a.u.)
22,GCTTTTGAGTTGACAGCCACCGTTTTTAACCAACGCGCGACGGAGTCACCTAGTGCAG,8140 fluorescence intensity (a.u.)
23,CGCCTCATCTTTGGTTAATTGTGTTCCGGTTCAGGCTATTCGGAGTCACCTAGTGCAG,13900 fluorescence intensity (a.u.)
24,CATGTCCAACGTTTGACCATTTGCCTTATTTAAAATTTTTCGGAGTCACCTAGTGCAG,9250 fluorescence intensity (a.u.)
25,AGTGCTTCAACATTGCTGACCTAGGGGTATTTCAGTCAAACGGAGTCACCTAGTGCAG,8690 fluorescence intensity (a.u.)
26,GTTTGACCAACTCATTTTTACTATCTAGATTTTTAGAATTCGGAGTCACCTAGTGCAG,8400 fluorescence intensity (a.u.)
27,AACCGCCTTTGCCGCTCGCTCCCGCCTCGAACCGACCTCGCGGAGTCACCTAGTGCAG,9710 fluorescence intensity (a.u.)

row,Sequence,binding signal
1,CATATATATCTTTTATTCTCCAGGTGTGTTGTATTCCTTCCGGAGTCACCTAGTGCAG,8580 fluorescence intensity (a.u.)
2,CCGTGGTTGGGGTGGTGGGCCGGGGTGTTACGTTAATGGGCGGAGTCACCTAGTGCAG,16500 fluorescence intensity (a.u.)
3,AGACCGTTGACTTGACTAGTCCACTCCTCTTTCACACGTACGGAGTCACCTAGTGCAG,12100 fluorescence intensity (a.u.)
4,ACCAGGCAACCATTATCTACTCTGACAGTTTCATATGGTCCGGAGTCACCTAGTGCAG,8320 fluorescence intensity (a.u.)
5,GGGATTTAATACACATTCTTCTTGGGAATTCTGGTTCGTGCGGAGTCACCTAGTGCAG,8340 fluorescence intensity (a.u.)
6,GCCCAACTCGTGGATGTCACCTCTCCTCCTCTCATCGCCTCGGAGTCACCTAGTGCAG,8240 fluorescence intensity (a.u.)
7,CGTGTTTTATGCTTTTTAATGCAACTTTTTTTCCAAATGTCGGAGTCACCTAGTGCAG,8110 fluorescence intensity (a.u.)
8,ATAACTTATGCTTCCTTGTACATATTTTGTCATTTTTCCTCGGAGTCACCTAGTGCAG,13200 fluorescence intensity (a.u.)
9,GTCCGTCCCTCATGCAGCGTCCGCTTTCCCCTAATCCGCTCGGAGTCACCTAGTGCAG,13000 fluorescence intensity (a.u.)
10,AAACCATCCCGCCCATGTAAACAATCACCGCCCTTGACTCCGGAGTCACCTAGTGCAG,11400 fluorescence intensity (a.u.)
11,TGTAGGGGTATACTTGGATTTTGGGAGAAGCTGTAATGTGCGGAGTCACCTAGTGCAG,11700 fluorescence intensity (a.u.)
12,GCTGCACACCAGCTCTCGTGCCCAGTCGCCGCTTGTTGATCGGAGTCACCTAGTGCAG,9560 fluorescence intensity (a.u.)
13,TGGGGAGGCATTCTTTTCTTTTTCTTTTTTTTTCACTCTCCGGAGTCACCTAGTGCAG,14500 fluorescence intensity (a.u.)
14,CATTGTTTCATTTTAAGCTTTTATTCACCATCTCTATTATCGGAGTCACCTAGTGCAG,9450 fluorescence intensity (a.u.)
15,TCTTCTCGATCGTTATATCGCGACCAGTACGCGCTACTACCGGAGTCACCTAGTGCAG,11600 fluorescence intensity (a.u.)
16,CAAAGTACATGCATACCCTGCATCACATATCAACCATACACGGAGTCACCTAGTGCAG,9030 fluorescence intensity (a.u.)
17,GTTGATGGACAGGGAGGGAGGCAAGTGGGGCTGTGAATTCCGGAGTCACCTAGTGCAG,8900 fluorescence intensity (a.u.)
18,TTTATCTATGTTGGTTTTTTTCGCTTTTTACTTTTTATTTCGGAGTCACCTAGTGCAG,14700 fluorescence intensity (a.u.)
19,CTTTTTTATTTTCATGAAATAATGTTTTGTTTTTAAAAATCGGAGTCACCTAGTGCAG,11600 fluorescence intensity (a.u.)
20,TGCTCCATTTCTCATTCAAAATTGACCTTTCATGACCAAACGGAGTCACCTAGTGCAG,8140 fluorescence intensity (a.u.)
21,ATCGTCGAGTGTACTAGTAGTAGGTTAGTGGTGGCTGGGTCGGAGTCACCTAGTGCAG,8660 fluorescence intensity (a.u.)
22,GTCCGATCATCTCACGTGGCATCTCGAAGCGGCCGCATTACGGAGTCACCTAGTGCAG,8140 fluorescence intensity (a.u.)
23,CTCTTACATGACTCCTTCCTTCTCTTCTTTTTCTCATTCCCGGAGTCACCTAGTGCAG,14100 fluorescence intensity (a.u.)
24,TGGAGGGGTGGGGAAGAAGAGGCTGACGCGTGGGGCCCATCGGAGTCACCTAGTGCAG,9780 fluorescence intensity (a.u.)
25,ATGGTTCTTATCACTCTGCTATTACCTATTATTGCTTGTTCGGAGTCACCTAGTGCAG,13600 fluorescence intensity (a.u.)
26,CATCCATCATATCGCCTCGTCGATCGTCTCCACCTTTCTTCGGAGTCACCTAGTGCAG,8030 fluorescence intensity (a.u.)
27,AATCAAACTTGAAATTTCTTGCTCCTCAGTTTTCTAATTTCGGAGTCACCTAGTGCAG,10400 fluorescence intensity (a.u.)

# Part of the list above, tab-delimited.
row	Sequence	binding signal
12	ACATGTTCATACTCATACATGTATATCCTCTTTGCCTAAACGGAGTCACCTAGTGCAG	11500 fluorescence intensity (a.u.)
7	CGTGTTTTATGCTTTTTAATGCAACTTTTTTTCCAAATGTCGGAGTCACCTAGTGCAG	8110 fluorescence intensity (a.u.)
